The supplement of paper PMC10849652
This is one part of the list.

Chains of the proteins cited; added tags and fusions are not shown. Lines headed by an entry give the natural chain unless they say otherwise; changes in a name come on top.
UniProt Q9NZ08: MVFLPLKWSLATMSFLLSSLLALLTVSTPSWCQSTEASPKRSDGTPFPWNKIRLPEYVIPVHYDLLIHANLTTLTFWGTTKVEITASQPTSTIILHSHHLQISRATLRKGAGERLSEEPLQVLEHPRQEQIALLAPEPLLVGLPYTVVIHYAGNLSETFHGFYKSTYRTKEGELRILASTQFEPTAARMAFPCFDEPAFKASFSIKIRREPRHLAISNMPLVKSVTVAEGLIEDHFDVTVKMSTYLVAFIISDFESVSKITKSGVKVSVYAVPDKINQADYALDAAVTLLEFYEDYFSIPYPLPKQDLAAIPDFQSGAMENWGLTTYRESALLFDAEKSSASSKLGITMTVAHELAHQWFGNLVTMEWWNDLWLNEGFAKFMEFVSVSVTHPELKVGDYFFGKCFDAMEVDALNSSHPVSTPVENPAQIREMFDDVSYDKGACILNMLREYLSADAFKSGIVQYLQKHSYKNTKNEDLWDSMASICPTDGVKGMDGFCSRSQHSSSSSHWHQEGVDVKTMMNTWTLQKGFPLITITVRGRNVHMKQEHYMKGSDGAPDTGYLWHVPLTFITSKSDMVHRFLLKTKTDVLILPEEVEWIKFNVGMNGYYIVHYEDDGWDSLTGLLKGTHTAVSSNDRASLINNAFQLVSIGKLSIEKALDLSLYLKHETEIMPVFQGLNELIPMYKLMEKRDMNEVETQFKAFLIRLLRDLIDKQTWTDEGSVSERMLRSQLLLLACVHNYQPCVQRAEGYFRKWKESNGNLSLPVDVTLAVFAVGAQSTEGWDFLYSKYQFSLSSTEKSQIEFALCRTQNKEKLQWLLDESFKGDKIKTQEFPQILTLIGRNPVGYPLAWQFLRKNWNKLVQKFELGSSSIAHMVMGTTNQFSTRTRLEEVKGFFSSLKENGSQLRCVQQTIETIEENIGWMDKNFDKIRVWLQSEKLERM
UniProt Q9UKR5: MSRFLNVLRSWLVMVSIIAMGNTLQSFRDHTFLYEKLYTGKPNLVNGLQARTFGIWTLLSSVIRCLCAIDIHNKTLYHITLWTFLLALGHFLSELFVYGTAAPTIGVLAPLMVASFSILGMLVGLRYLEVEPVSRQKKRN
UniProt Q96DZ1: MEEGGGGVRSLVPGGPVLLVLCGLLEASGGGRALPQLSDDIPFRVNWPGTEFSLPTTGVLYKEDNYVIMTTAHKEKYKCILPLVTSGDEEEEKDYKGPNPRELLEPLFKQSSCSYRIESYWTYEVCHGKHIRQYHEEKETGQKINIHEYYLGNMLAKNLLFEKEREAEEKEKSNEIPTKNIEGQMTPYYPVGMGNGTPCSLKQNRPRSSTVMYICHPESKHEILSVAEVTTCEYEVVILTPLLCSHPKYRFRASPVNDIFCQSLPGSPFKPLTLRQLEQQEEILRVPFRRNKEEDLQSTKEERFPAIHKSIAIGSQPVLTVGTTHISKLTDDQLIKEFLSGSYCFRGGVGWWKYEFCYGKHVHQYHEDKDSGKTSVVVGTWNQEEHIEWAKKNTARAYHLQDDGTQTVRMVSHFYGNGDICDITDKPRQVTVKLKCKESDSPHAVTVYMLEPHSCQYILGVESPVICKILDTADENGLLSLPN
UniProt Q9HBU6: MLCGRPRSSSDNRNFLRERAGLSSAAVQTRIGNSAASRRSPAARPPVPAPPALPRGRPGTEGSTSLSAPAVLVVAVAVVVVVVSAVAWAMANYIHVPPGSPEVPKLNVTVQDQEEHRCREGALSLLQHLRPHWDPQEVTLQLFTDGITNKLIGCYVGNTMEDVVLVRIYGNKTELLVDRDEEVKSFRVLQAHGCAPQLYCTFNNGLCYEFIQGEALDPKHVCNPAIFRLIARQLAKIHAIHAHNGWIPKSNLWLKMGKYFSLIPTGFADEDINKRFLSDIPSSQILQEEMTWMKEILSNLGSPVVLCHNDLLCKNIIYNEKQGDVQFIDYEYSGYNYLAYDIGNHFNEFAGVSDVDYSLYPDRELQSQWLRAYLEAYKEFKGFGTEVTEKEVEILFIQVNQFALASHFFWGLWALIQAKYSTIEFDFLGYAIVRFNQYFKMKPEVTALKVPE
UniProt Q9NV70: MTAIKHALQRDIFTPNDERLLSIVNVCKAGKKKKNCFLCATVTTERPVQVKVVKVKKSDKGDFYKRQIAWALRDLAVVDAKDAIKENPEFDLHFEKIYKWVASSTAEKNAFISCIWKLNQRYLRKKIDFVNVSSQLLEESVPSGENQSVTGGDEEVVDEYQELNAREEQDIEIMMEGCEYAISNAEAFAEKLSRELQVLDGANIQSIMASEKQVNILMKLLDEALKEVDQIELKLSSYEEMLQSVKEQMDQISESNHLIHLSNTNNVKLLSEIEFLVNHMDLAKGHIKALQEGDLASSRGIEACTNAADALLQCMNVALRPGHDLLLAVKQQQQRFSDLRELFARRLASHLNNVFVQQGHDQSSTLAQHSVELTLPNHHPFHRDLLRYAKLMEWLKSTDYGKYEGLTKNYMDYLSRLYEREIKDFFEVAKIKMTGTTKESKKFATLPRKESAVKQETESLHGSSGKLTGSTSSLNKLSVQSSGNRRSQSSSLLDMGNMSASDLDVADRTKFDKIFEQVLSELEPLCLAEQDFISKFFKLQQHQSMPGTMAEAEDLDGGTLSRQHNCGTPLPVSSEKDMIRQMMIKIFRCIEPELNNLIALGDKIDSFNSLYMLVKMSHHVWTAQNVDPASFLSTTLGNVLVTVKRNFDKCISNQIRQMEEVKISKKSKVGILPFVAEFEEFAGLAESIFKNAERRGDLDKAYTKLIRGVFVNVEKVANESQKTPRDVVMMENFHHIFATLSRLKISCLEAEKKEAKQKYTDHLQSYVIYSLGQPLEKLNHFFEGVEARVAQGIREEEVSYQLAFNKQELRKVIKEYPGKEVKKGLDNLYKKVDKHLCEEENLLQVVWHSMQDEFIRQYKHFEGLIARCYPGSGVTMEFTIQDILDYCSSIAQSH
UniProt Q9NWS6: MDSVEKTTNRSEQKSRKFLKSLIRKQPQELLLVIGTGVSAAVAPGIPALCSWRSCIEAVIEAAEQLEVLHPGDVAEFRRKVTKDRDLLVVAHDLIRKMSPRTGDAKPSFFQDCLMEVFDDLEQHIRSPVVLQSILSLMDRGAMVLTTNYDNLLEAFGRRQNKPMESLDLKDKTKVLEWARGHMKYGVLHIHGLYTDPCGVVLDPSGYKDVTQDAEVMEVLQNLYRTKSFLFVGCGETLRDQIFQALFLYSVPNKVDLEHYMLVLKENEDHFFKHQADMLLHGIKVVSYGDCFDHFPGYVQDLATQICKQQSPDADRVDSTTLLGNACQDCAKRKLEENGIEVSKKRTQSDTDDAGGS
UniProt Q6P587: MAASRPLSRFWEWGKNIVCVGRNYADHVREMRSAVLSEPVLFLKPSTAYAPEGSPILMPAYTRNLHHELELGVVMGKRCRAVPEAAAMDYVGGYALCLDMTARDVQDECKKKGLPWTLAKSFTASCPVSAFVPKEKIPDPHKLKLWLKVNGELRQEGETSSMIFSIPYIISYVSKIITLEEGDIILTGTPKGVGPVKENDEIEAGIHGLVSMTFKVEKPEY
UniProt O43491, whole entry, looked up: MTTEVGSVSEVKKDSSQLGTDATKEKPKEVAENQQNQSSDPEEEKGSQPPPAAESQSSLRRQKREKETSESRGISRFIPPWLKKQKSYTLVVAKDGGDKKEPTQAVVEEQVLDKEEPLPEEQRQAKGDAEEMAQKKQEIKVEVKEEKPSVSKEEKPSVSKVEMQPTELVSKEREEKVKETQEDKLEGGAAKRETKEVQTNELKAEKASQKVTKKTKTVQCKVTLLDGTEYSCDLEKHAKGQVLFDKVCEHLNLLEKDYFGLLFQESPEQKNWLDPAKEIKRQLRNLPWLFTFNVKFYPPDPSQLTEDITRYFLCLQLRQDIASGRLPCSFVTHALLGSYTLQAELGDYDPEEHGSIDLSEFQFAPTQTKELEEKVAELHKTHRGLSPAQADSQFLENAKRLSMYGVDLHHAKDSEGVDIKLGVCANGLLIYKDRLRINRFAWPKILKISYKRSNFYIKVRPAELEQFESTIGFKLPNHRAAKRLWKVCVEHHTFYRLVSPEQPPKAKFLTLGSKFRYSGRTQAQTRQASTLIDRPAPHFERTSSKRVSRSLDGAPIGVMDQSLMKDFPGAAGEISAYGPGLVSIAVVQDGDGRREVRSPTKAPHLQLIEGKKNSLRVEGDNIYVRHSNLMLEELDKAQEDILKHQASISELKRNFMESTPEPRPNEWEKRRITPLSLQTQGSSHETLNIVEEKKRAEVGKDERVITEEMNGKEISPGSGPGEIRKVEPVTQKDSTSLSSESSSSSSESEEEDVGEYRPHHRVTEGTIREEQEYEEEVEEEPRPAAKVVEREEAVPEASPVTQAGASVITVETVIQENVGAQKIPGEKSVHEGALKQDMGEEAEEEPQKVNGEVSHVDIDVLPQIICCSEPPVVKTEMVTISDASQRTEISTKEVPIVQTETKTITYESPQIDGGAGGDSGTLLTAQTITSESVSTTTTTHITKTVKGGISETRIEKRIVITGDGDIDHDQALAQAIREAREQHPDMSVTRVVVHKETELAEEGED
UniProt Q9GZU8: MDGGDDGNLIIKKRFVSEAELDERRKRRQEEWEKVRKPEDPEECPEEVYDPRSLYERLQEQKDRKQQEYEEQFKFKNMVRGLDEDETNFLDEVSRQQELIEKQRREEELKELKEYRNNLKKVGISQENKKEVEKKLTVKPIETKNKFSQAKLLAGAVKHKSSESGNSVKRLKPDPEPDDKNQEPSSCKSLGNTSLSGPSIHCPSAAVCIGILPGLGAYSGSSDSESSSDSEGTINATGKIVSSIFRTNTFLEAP
UniProt O95571: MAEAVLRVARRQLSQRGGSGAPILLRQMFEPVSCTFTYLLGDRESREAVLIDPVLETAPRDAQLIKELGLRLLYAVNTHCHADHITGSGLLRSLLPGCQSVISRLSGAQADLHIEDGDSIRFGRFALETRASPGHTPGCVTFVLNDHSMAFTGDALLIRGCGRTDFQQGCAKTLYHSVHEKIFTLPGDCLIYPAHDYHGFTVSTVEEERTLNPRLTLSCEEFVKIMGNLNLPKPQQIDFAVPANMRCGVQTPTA
UniProt Q9NZB2: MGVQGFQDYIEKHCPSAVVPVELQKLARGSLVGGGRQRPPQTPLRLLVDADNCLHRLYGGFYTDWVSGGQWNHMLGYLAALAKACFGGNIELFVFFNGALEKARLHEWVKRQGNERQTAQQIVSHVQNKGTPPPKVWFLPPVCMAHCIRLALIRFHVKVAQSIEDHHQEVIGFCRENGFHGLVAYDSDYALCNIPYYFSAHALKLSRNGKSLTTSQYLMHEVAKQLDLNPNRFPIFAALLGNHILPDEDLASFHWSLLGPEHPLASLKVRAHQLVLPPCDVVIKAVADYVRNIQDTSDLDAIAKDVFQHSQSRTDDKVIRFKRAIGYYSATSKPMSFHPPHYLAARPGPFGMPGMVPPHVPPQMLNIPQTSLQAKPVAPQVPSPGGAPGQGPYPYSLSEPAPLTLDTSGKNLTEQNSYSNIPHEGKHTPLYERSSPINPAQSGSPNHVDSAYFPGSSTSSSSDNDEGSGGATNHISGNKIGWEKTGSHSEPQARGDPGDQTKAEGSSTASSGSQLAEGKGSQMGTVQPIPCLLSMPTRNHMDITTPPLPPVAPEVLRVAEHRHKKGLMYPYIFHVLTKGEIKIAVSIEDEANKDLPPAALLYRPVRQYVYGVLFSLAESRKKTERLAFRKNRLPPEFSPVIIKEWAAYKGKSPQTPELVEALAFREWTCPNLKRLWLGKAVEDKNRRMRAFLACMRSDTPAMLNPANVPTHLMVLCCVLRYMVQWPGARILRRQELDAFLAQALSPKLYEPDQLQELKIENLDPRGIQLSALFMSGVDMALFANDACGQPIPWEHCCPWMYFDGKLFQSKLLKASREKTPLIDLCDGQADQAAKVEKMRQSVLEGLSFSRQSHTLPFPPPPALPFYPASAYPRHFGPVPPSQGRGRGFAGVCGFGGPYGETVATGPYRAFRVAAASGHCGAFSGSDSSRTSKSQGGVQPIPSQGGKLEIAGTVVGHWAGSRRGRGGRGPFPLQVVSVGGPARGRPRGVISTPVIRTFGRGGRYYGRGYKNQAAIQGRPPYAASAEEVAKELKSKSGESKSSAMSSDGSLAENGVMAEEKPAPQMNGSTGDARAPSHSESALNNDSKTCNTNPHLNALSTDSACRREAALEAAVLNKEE
UniProt Q96DF8: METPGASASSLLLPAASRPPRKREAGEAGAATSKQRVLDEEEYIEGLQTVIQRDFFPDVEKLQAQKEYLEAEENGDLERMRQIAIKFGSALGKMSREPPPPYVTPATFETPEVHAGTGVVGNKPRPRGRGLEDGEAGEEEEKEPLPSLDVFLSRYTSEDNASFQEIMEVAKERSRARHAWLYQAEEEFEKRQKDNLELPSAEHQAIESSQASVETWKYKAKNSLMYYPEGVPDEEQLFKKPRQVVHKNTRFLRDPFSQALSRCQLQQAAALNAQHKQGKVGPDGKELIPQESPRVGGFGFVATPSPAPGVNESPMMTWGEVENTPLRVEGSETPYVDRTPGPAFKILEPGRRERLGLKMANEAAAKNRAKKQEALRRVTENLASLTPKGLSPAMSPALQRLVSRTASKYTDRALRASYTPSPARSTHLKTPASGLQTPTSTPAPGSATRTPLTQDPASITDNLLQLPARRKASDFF

Legend:
Assay in all cases: log2 fold change, soluble protein after heating vs DMSO (PISA); higher = thermal stabilisation; K562 cells, 10 uM, 30 min; active = over 0.2 and 3.5 SD of the protein, either way, in both replicates (recomputed)
[1] = compound: CC1=C(C=C(C=C1)NC(=O)C2=CC(=CC=C2)C(C)(C)C#N)NC3=CC4=C(C=C3)N=CN(C4=O)C
Summary of the method: (§1)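 Soluble protein was defined as the supernatant after 21,000xg for 90 min. It came from K562 cells at 2×10^6 cells/mL given 10 μM compound for 30 min, heated in aliquots for 3 min across 48°C-58°C, pooled, and extracted in PBS with 0.5% NP-40 at 4°C, and was quantified by TMTpro 16plex LC-MS/MS with equalised channel sums. Thermal stability against control samples, from duplicates, is reported as log2 fold change.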

[2] = compound: CC1=C(C=C(C=C1)NC(=O)C2=CC(=CC=C2)N(C)C)NC(=O)C3=CC=C(C=C3)O
Summary of the method: as §1

[3] = compound: CC1=CC=C(C=C1)SC2=C3C=C(SC3=CN=C2)C(=O)N
Summary of the method: as §1

[4] = compound: CC1=NC(=CC=C1)C2=C(N=C(N2)C(C)(C)C)C3=CC4=NC=CN=C4C=C3
Summary of the method: as §1

Nexturastat A = compound: CCCCN(Cc1ccc(C(=O)NO)cc1)C(=O)Nc1ccccc1 [Nexturastat A]
Summary of the method: as §1

vemurafenib = compound: CCCS(=O)(=O)Nc1ccc(F)c(C(=O)c2c[nH]c3ncc(-c4ccc(Cl)cc4)cc23)c1F [vemurafenib]
Summary of the method: as §1

[5] = compound: CCCS(=O)(=O)Nc1ccc(F)c(C(=O)c2c[nH]c3ncc(Cl)cc23)c1F
Summary of the method: as §1

[6] = compound: CCCc1cc(C)[nH]c(=O)c1CNC(=O)c1cc(-c2ccnc(N3CCN(C)CC3)c2)cc2c1cnn2C(C)C
Summary of the method: as §1

givinostat = compound: CCN(CC)Cc1ccc2cc(COC(=O)Nc3ccc(C(=O)NO)cc3)ccc2c1 [givinostat]
Summary of the method: as §1

barasertib = compound: CCN(CCCOc1ccc2c(Nc3cc(CC(=O)Nc4cccc(F)c4)[nH]n3)ncnc2c1)CCOP(=O)(O)O [barasertib]
Summary of the method: as §1

Measured: log2 fold change

ERAP1 isoform 2 (UniProt Q9NZ08)
inactive: [1] 0 | [2] -0.001 | [3] 0.002 | [4] -0.065 | Nexturastat A 0.059 | vemurafenib -0.046 | [5] -0.012 | [6] 0.035 | givinostat 0.016 | barasertib -0.013

ERG28 (UniProt Q9UKR5)
inactive: [1] 0.2 | [2] -0.088 | [3] -0.08 | [4] 0.04 | Nexturastat A -0.078 | vemurafenib -0.088 | [5] 0.072 | [6] 0.144 | givinostat -0.027 | barasertib -0.026

EXOSC6 (UniProt Q5RKV6)
inactive: [1] 0.039 | [2] 0.025 | [3] 0.053 | [4] 0.025 | Nexturastat A -0.015 | vemurafenib 0.017 | [5] 0.018 | [6] -0.029 | givinostat 0 | barasertib 0

ERLEC1 (UniProt Q96DZ1)
inactive: [1] 0.033 | [2] -0.001 | [3] -0.015 | [4] 0.006 | Nexturastat A 0.017 | vemurafenib -0.021 | [5] 0.003 | [6] -0.064 | givinostat -0.016 | barasertib -0.003

ETNPPL (UniProt Q8TBG4)
inactive: [1] -0.062 | [2] 0.314 | [3] -0.085 | [4] 0.053 | Nexturastat A -0.37 | vemurafenib 0.034 | [5] -0.051 | [6] -0.228 | givinostat -0.233 | barasertib -0.012

ETNK1 (UniProt Q9HBU6)
inactive: [1] 0.241 | [2] -0.054 | [3] 0.022 | [4] 0.02 | Nexturastat A -0.177 | vemurafenib 0.006 | [5] 0.172 | [6] -0.076 | givinostat 0.042 | barasertib 0.005

ETFRF1 (UniProt Q6IPR1)
inactive: [1] -0.114 | [2] 0.002 | [3] 0 | [4] 0.016 | Nexturastat A 0.005 | vemurafenib 0.086 | [5] -0.079 | [6] 0.033 | givinostat 0.022 | barasertib -0.046

FAM122A (UniProt Q96E09)
inactive: [1] -0.01 | [2] -0.005 | [3] 0.045 | [4] -0.006 | Nexturastat A 0.107 | vemurafenib -0.017 | [5] 0.095 | [6] 0.026 | givinostat 0.064 | barasertib -0.016

EXOC1 (UniProt Q9NV70)
inactive: [1] -0.026 | [2] -0.01 | [3] 0.019 | [4] 0.027 | Nexturastat A 0.115 | vemurafenib -0.023 | [5] 0.028 | [6] 0.08 | givinostat 0.07 | barasertib 0.082

FAM118A (UniProt Q9NWS6)
inactive: [1] 0.057 | [2] 0.086 | [3] 0.101 | [4] -0.163 | Nexturastat A -0.031 | vemurafenib 0.182 | [5] 0.114 | [6] -0.016 | barasertib 0.112

ERMP1 (UniProt Q7Z2K6)
inactive: [1] -0.035 | [2] 0.01 | [3] 0.018 | [4] -0.025 | Nexturastat A -0.012 | vemurafenib -0.008 | [5] -0.032 | [6] -0.004 | givinostat -0.019 | barasertib -0.021

FAHD1 (UniProt Q6P587)
inactive: [1] -0.034 | [2] 0.016 | [3] 0.011 | [4] 0 | Nexturastat A -0.048 | vemurafenib 0 | [5] -0.01 | [6] -0.054 | givinostat 0.002 | barasertib -0.002

EPB41L2 (UniProt O43491)
inactive: [1] -0.002 | [2] 0.001 | [3] -0.005 | [4] -0.007 | Nexturastat A -0.02 | vemurafenib 0.016 | [5] -0.027 | [6] -0.06 | givinostat 0.003 | barasertib -0.005

Reprinted from the listing (2 entries):
EXOC1 (UniProt Q9NV70)
inactive: [1] -0.026 | [2] -0.01 | [3] 0.019 | [4] 0.027 | Nexturastat A 0.115 | vemurafenib -0.023 | [5] 0.028 | [6] 0.08 | givinostat 0.07 | barasertib 0.082

FAM118A (UniProt Q9NWS6)
inactive: [1] 0.057 | [2] 0.086 | [3] 0.101 | [4] -0.163 | Nexturastat A -0.031 | vemurafenib 0.182 | [5] 0.114 | [6] -0.016 | barasertib 0.112

Later entries:

FAM192A (UniProt Q9GZU8)
inactive: [1] -0.062 | [2] 0.007 | [3] 0 | [4] -0.016 | Nexturastat A -0.115 | vemurafenib -0.039 | [5] 0.032 | [6] -0.036 | givinostat -0.04 | barasertib 0.016

EZR (UniProt P15311)
inactive: [1] 0.021 | [2] -0.01 | [3] -0.005 | [4] 0.02 | Nexturastat A -0.071 | vemurafenib 0.007 | [5] -0.005 | [6] 0.014 | givinostat -0.037 | barasertib 0.009

FAM162A (UniProt Q96A26)
inactive: [1] -0.006 | [2] 0.01 | [3] 0.051 | [4] -0.026 | Nexturastat A -0.047 | vemurafenib 0.025 | [5] 0.047 | [6] -0.037 | givinostat -0.019 | barasertib -0.034

FAM160B1 (UniProt Q5W0V3)
inactive: [1] 0.033 | [2] 0.128 | [3] -0.019 | [4] 0.051 | Nexturastat A -0.023 | vemurafenib 0.149 | [5] 0.034 | [6] 0.014 | givinostat 0.016 | barasertib 0.109

EXOSC7 (UniProt Q15024)
inactive: [1] -0.038 | [2] 0.004 | [3] -0.036 | [4] -0.045 | Nexturastat A 0.018 | vemurafenib -0.041 | [5] -0.059 | [6] -0.04 | givinostat -0.014 | barasertib -0.013

ETHE1 (UniProt O95571)
inactive: [1] -0.046 | [2] 0.006 | [3] -0.029 | [4] 0.003 | Nexturastat A -0.054 | vemurafenib -0.046 | [5] -0.011 | [6] -0.05 | givinostat -0.062 | barasertib -0.069

ERCC4 (UniProt Q92889)
inactive: [1] 0.053 | [2] -0.071 | [3] 0.001 | [4] 0.022 | Nexturastat A -0.077 | vemurafenib -0.076 | [5] 0 | [6] -0.755 | givinostat 0.061 | barasertib 0.101

FAM120A isoform 6 (UniProt Q9NZB2)
inactive: [1] 0.022 | [2] 0.046 | [3] -0.097 | [4] -0.08 | Nexturastat A 0.23 | vemurafenib -0.089 | [5] -0.038 | [6] 0.066 | givinostat -0.079 | barasertib -0.178

ESS2 (UniProt Q96DF8)
inactive: [1] -0.085 | [2] 0.091 | [3] -0.024 | [4] -0.018 | Nexturastat A 0.032 | vemurafenib -0.01 | [5] -0.013 | [6] -0.075 | givinostat -0.01 | barasertib -0.025

EPB41L3 (UniProt Q9Y2J2)
inactive: [1] 0.009 | [2] 0.031 | [3] 0.044 | [4] 0.03 | Nexturastat A -0.028 | vemurafenib -0.006 | [5] -0.011 | [6] 0 | givinostat -0.086 | barasertib 0.002

ESYT1 isoform 2 (UniProt Q9BSJ8)
inactive: [1] 0.117 | [2] -0.052 | [3] -0.007 | [4] 0.003 | Nexturastat A 0.045 | vemurafenib 0.01 | [5] 0.048 | [6] 0.148 | givinostat 0.116 | barasertib 0.046

ERCC6 (UniProt Q03468)
inactive: [1] -0.127 | [2] -0.038 | [3] 0.005 | [4] -0.038 | Nexturastat A -0.126 | vemurafenib 0.064 | [5] 0.074 | [6] -0.017 | givinostat 0.071 | barasertib 0.065

EXOSC9 isoform 2 (UniProt Q06265)
inactive: [1] -0.078 | [2] 0.047 | [3] 0.001 | [4] -0.023 | Nexturastat A 0.002 | vemurafenib -0.025 | [5] 0.016 | [6] -0.026 | givinostat -0.001 | barasertib -0.031
